Measurements published in PubChem BioAssay AID248 (DTP/NCI, 2004).
The list shows only some results of the screen, not a fair sample: it covers a few groups of compounds. Not every dose and run of a compound is shown. T/C: endpoint of the treated group in % of that of the vehicle group. Some doses have a count of surviving animals in place of a T/C: the source holds a T/C of zero for them, seemingly a mark for toxic or unscored doses. Some survivor counts are full or nearly so, which does not show that the dose was tolerated: the source hardly ever lists a survival T/C far under the control, and the zero likely stands for such cases as well. Survivors were counted at the toxicity check, usually on the fifth day, unless a day is given; later deaths do not show. Schedules are NCI's codes, read here as Q, the interval in days (D) or hours (H), X, the number of doses. Some entries were tested several times; the values are given in rising order. For survival time, this PubChem deposit counts one and a half times the control or more as active, and values a quarter to a half above the control carry no call in these data; other NCI protocols may use other cut-offs. Some T/C values are marked as having no survivor count here; that says nothing about deaths at the dose. Some T/C values are followed by the survivors on the day toxicity was checked, most often the fifth; without a count or a note in brackets, all were alive then.

System: L1210 leukemia ip in BDF1 mice, survival T/C
Experiment: NCI In Vivo Anticancer Drug Screen. Data for tumor model L1210 Leukemia (intraperitoneal) in B6D2F1 (BDF1) mice
Conditions: T/C endpoint: mean survival time, higher T/C = longer survival
[1] = dose: 50.0 mg/kg/injection, schedule: Q01DX001 (ip), vehicle: saline
[2] = dose: 100.0 mg/kg/injection, schedule: Q01DX001 (ip), vehicle: saline
[3] = dose: 200.0 mg/kg/injection, schedule: Q01DX001 (ip), vehicle: saline
[4] = dose: 400.0 mg/kg/injection, schedule: Q01DX001 (ip), vehicle: saline
[5] = dose: 100.0 mg/kg/injection, schedule: Q04DX003 (ip), vehicle: Klucel (hydroxypropylcellulose) (HPC)
[6] = dose: 200.0 mg/kg/injection, schedule: Q04DX003 (ip), vehicle: Klucel (hydroxypropylcellulose) (HPC)
[7] = dose: 400.0 mg/kg/injection, schedule: Q04DX003 (ip), vehicle: Klucel (hydroxypropylcellulose) (HPC)
[8] = dose: 300.0 mg/kg/injection, schedule: Q01DX001 (ip), vehicle: other

O=C(Cl)c1c([N+](=O)[O-])cc([N+](=O)[O-])cc1[N+](=O)[O-]
T/C (dose: 100.0 mg/kg/injection, schedule: Q01DX001 (ip), vehicle: carboxymethylcellulose (CMC)): 97 % of control [survivor count not shown] | T/C (dose: 200.0 mg/kg/injection, schedule: Q01DX001 (ip), vehicle: carboxymethylcellulose (CMC)): 101 % of control [survivor count not shown] | T/C (dose: 400.0 mg/kg/injection, schedule: Q01DX001 (ip), vehicle: carboxymethylcellulose (CMC)): 95 % of control [survivor count not shown]

Fc1cccc(CNCCCl)c1
T/C [1]: 97 % of control | T/C [2]: 100 % of control | T/C [3]: 103 % of control | T/C [4]: 103 % of control

CC[P+]1(c2ccccc2)CCC(C)(C)c2ccccc21.F[P-](F)(F)(F)(F)F (stereo unspecified)
T/C (dose: 6.25 mg/kg/injection, schedule: Q04DX003 (ip), vehicle: Klucel (hydroxypropylcellulose) (HPC)): 96 % of control | T/C (dose: 12.5 mg/kg/injection, schedule: Q04DX003 (ip), vehicle: Klucel (hydroxypropylcellulose) (HPC)): 96 % of control | survivor count (dose: 25.0 mg/kg/injection, schedule: Q04DX003 (ip), vehicle: Klucel (hydroxypropylcellulose) (HPC)): 0 of 6 | survivor count (dose: 50.0 mg/kg/injection, schedule: Q04DX003 (ip), vehicle: Klucel (hydroxypropylcellulose) (HPC)): 0 of 6 and 3 of 6 | survivor count [5]: 0 of 6 | survivor count [6]: 0 of 6 | survivor count [7]: 0 of 6

O=P(NC(=S)NN1CCOCC1)(Oc1ccccc1)Oc1ccccc1
T/C (dose: 100.0 mg/kg/injection, schedule: Q01DX009 (ip), vehicle: carboxymethylcellulose (CMC)): 104 % of control | T/C (dose: 200.0 mg/kg/injection, schedule: Q01DX009 (ip), vehicle: carboxymethylcellulose (CMC)): 98 % of control | T/C (dose: 400.0 mg/kg/injection, schedule: Q01DX009 (ip), vehicle: carboxymethylcellulose (CMC)): 93 % of control

O=[N+]([O-])c1cc([N+](=O)[O-])c(C(F)(F)F)cc1Nc1cc(C(F)(F)F)c([N+](=O)[O-])cc1[N+](=O)[O-]
T/C [2]: 101 % of control | survivor count [3]: 0 of 4 | survivor count [4]: 1 of 4

NC(=O)c1cn[nH]c1/N=N/N(CCCl)CCCl
survivor count (dose: 67.0 mg/kg/injection, schedule: Q01DX009 (ip), vehicle: other): 6 of 6 | T/C (dose: 67.75 mg/kg/injection, schedule: Q01DX009 (ip), vehicle: saline with Tween-80): 103 % of control | survivor count (dose: 75.0 mg/kg/injection, schedule: Q01DX001 (ip), vehicle: other): 6 of 6 | T/C (dose: 88.0 mg/kg/injection, schedule: Q01DX009 (ip), vehicle: other): 113 % of control | survivor count (dose: 100.0 mg/kg/injection, schedule: Q01DX009 (ip), vehicle: other): 6 of 6 | T/C (dose: 132.0 mg/kg/injection, schedule: Q01DX001 (ip), vehicle: other): 113 % of control | T/C (dose: 132.0 mg/kg/injection, schedule: Q01DX009 (ip), vehicle: other): 130 % of control | T/C (dose: 135.5 mg/kg/injection, schedule: Q01DX009 (ip), vehicle: saline with Tween-80): 122 % of control | survivor count (dose: 150.0 mg/kg/injection, schedule: Q01DX001 (ip), vehicle: other): 6 of 6 | T/C (dose: 150.0 mg/kg/injection, schedule: Q01DX009 (ip), vehicle: other): 134 % of control | T/C (dose: 200.0 mg/kg/injection, schedule: Q01DX001 (ip), vehicle: other): 110 % of control | T/C (dose: 200.0 mg/kg/injection, schedule: Q01DX009 (ip), vehicle: other): 140 % of control [5 of 6 alive] | T/C (dose: 271.0 mg/kg/injection, schedule: Q01DX009 (ip), vehicle: saline with Tween-80): 148 % of control | T/C [8]: 121 % of control | survivor count [8]: 6 of 6 | T/C (dose: 300.0 mg/kg/injection, schedule: Q01DX009 (ip), vehicle: other): 178 and 196 % of control | T/C (dose: 450.0 mg/kg/injection, schedule: Q01DX001 (ip), vehicle: other): 130 % of control | T/C (dose: 450.0 mg/kg/injection, schedule: Q01DX009 (ip), vehicle: other): 190 % of control [5 of 6 alive]

CN(C)C(=O)CCc1ccc(N(CCCl)CCCl)cc1
T/C (dose: 2.5 mg/kg/injection, schedule: Q04DX003 (ip), vehicle: Klucel (hydroxypropylcellulose) (HPC)): 106 % of control | T/C (dose: 5.0 mg/kg/injection, schedule: Q01DX009 (ip), vehicle: Klucel (hydroxypropylcellulose) (HPC)): 104 % of control | T/C (dose: 5.0 mg/kg/injection, schedule: Q04DX003 (ip), vehicle: Klucel (hydroxypropylcellulose) (HPC)): 107 % of control | T/C (dose: 10.0 mg/kg/injection, schedule: Q01DX009 (ip), vehicle: Klucel (hydroxypropylcellulose) (HPC)): 112 % of control | T/C (dose: 10.0 mg/kg/injection, schedule: Q04DX003 (ip), vehicle: Klucel (hydroxypropylcellulose) (HPC)): 106 % of control | T/C (dose: 20.0 mg/kg/injection, schedule: Q01DX001 (ip), vehicle: Klucel (hydroxypropylcellulose) (HPC)): 112 % of control | T/C (dose: 20.0 mg/kg/injection, schedule: Q01DX009 (ip), vehicle: Klucel (hydroxypropylcellulose) (HPC)): 110 % of control | T/C (dose: 20.0 mg/kg/injection, schedule: Q04DX003 (ip), vehicle: Klucel (hydroxypropylcellulose) (HPC)): 109 % of control | T/C (dose: 40.0 mg/kg/injection, schedule: Q01DX001 (ip), vehicle: Klucel (hydroxypropylcellulose) (HPC)): 112 % of control [5 of 6 alive] | T/C (dose: 80.0 mg/kg/injection, schedule: Q01DX001 (ip), vehicle: Klucel (hydroxypropylcellulose) (HPC)): 109 % of control | T/C (dose: 100.0 mg/kg/injection, schedule: Q01DX001 (ip), vehicle: Klucel (hydroxypropylcellulose) (HPC)): 128 % of control | survivor count (dose: 200.0 mg/kg/injection, schedule: Q01DX001 (ip), vehicle: Klucel (hydroxypropylcellulose) (HPC)): 0 of 6 | survivor count (dose: 400.0 mg/kg/injection, schedule: Q01DX001 (ip), vehicle: Klucel (hydroxypropylcellulose) (HPC)): 0 of 6

C(=C/[AsH](c1ccccc1)c1ccccc1)/[AsH](c1ccccc1)c1ccccc1.C(=C/[AsH](c1ccccc1)c1ccccc1)/[AsH](c1ccccc1)c1ccccc1.F[P-](F)(F)(F)(F)F.O=S(=O)([O-])[O-].[Rh+3]
T/C [1]: 104 % of control | T/C [2]: 114 % of control [5 of 6 alive] | T/C [3]: 112 % of control [4 of 6 alive]

O=P(NC(=S)Nc1ccccc1)(NC(=S)Nc1ccccc1)N(CCCl)CCCl
T/C [5]: 96 % of control | T/C [6]: 96 % of control | T/C [7]: 93 % of control [5 of 6 alive]

NC(=NCCN/C(N)=N/[N+](=O)[O-])N[N+](=O)[O-]
T/C (dose: 50.0 mg/kg/injection, schedule: Q01DX009 (ip), vehicle: saline): 104 % of control [survivor count not shown] | T/C (dose: 100.0 mg/kg/injection, schedule: Q01DX009 (ip), vehicle: saline): 96 % of control [survivor count not shown] | T/C (dose: 200.0 mg/kg/injection, schedule: Q01DX009 (ip), vehicle: saline): 98 % of control [survivor count not shown]

ClC1(Cl)SC(Cl)(Cl)C(Cl)(Cl)C1(Cl)Cl
T/C (dose: 50.0 mg/kg/injection, schedule: Q01DX009 (ip), vehicle: Klucel (hydroxypropylcellulose) (HPC)): 101 % of control | T/C (dose: 100.0 mg/kg/injection, schedule: Q01DX009 (ip), vehicle: Klucel (hydroxypropylcellulose) (HPC)): 106 % of control | T/C (dose: 100.0 mg/kg/injection, schedule: Q04DX003 (ip), vehicle: saline with Tween-80): 95 % of control | survivor count (dose: 200.0 mg/kg/injection, schedule: Q01DX009 (ip), vehicle: Klucel (hydroxypropylcellulose) (HPC)): 5 of 6 | T/C (dose: 200.0 mg/kg/injection, schedule: Q04DX003 (ip), vehicle: saline with Tween-80): 95 % of control | survivor count (dose: 400.0 mg/kg/injection, schedule: Q04DX003 (ip), vehicle: saline with Tween-80): 3 of 6
